At least one structure is not confirmed: it was looked up by name or label, or the drawing left a doubt.
Tested on: Heterozygous transgenic mice carrying the human SOD-1 (G93A)
Assay: Murine model of familial ALS (FALS): monitoring for limb paralysis and death, life-table analysis
Format: in vivo
Details: male FALS mice; 16 mg/kg twice a day, everyday except weekends; compared with vehicle-treated males
Procedure: Heterozygous transgenic mice carrying the human SOD-1 (G93A) were obtained from Jackson Laboratory (Bar Harbor, Me., USA). These mice were monitored everyday for limbic paralysis and death. Onset of FALS was defined as the first day upon which limbic paralysis was observed. Life-table analysis was performed using Statview, Abacus Concepts, Inc. (Berkeley, Calif.).
There are currently several transgenic animal models of ALS (Borchelt et al., 1998, Transgenic mouse models of Alzheimer's disease and amyotrophic lateral sclerosis, Brain Pathology, 8: 735-757). […]
Heterozygous transgenic mice carrying the human SOD-1 (G93A) were obtained from Jackson Laboratory (Bar Harbor, Me., USA). […] The mice were monitored everyday for limb paralysis and death. […]
The ability of 4-(4′-hydroxylphenyl)-amino-6,7-dimethoxyquinazoline (P131) and 2,4,4′-trihydroxy deoxybenzoin (DDE-17) to protect against neural degeneration in familial ALS was evaluated using the methods described above for Example 2. […]

Q: Which results are given for `COc1cc2ncnc(Nc3ccc(O)cc3)c2cc1OC` [P131, 4-(4′-hydroxylphenyl)-amino-6,7-dimethoxyquinazoline]?
A: disease onset (first day upon which limbic paralysis was observed): delayed; mortality: delayed

Source: patent publication US6592845B2, “Estrogens for treating ALS” (Parker Hughes Institute, priority 1999, dated 2003)
